In the supplement of paper PMC7666118:
Some of the results follow.

Chains of the proteins cited; added tags and fusions are not shown. Lines headed by an entry give the natural chain unless they say otherwise; changes in a name come on top.
UniProt Q9H939: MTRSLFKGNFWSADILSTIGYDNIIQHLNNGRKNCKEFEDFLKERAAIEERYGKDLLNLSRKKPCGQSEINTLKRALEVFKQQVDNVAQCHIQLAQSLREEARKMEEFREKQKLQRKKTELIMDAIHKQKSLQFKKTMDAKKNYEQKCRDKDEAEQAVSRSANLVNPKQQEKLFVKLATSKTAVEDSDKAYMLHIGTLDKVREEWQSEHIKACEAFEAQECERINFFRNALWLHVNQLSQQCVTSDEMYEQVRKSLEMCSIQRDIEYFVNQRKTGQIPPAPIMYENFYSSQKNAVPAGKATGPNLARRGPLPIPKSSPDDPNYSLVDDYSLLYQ
UniProt P28065: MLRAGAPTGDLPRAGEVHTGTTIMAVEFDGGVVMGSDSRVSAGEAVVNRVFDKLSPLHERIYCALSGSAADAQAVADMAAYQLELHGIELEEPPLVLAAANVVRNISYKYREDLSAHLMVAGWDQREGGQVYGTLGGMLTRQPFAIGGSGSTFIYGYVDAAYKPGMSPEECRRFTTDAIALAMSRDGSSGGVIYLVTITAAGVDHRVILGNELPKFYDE
UniProt Q9UNM6: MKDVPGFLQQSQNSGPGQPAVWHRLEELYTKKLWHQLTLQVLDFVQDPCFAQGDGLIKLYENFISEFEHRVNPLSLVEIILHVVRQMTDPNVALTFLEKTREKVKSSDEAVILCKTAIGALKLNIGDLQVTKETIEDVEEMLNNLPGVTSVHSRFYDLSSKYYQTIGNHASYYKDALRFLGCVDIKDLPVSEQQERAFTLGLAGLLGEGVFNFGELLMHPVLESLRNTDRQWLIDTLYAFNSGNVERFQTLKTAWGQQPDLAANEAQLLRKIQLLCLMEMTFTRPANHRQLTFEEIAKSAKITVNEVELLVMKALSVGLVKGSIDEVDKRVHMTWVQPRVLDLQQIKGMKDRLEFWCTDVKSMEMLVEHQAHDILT
UniProt Q15054: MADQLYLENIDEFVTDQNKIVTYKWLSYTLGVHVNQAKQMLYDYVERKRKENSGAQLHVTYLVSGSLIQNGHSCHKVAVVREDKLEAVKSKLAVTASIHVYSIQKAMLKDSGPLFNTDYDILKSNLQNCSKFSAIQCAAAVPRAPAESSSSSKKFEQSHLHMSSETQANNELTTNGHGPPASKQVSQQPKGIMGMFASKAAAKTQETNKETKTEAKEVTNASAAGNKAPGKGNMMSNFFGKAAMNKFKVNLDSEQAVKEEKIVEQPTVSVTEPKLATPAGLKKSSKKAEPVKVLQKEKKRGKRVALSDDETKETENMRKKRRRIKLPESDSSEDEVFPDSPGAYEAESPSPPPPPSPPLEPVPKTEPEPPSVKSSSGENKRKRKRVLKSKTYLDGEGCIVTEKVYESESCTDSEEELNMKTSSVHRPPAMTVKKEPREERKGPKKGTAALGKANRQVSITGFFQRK
UniProt Q9H875: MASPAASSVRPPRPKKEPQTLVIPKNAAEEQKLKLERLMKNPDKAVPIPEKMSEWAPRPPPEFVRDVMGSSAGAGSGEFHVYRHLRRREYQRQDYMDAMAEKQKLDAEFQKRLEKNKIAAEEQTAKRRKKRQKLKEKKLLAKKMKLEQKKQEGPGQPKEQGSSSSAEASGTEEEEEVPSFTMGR
UniProt Q9UKY4: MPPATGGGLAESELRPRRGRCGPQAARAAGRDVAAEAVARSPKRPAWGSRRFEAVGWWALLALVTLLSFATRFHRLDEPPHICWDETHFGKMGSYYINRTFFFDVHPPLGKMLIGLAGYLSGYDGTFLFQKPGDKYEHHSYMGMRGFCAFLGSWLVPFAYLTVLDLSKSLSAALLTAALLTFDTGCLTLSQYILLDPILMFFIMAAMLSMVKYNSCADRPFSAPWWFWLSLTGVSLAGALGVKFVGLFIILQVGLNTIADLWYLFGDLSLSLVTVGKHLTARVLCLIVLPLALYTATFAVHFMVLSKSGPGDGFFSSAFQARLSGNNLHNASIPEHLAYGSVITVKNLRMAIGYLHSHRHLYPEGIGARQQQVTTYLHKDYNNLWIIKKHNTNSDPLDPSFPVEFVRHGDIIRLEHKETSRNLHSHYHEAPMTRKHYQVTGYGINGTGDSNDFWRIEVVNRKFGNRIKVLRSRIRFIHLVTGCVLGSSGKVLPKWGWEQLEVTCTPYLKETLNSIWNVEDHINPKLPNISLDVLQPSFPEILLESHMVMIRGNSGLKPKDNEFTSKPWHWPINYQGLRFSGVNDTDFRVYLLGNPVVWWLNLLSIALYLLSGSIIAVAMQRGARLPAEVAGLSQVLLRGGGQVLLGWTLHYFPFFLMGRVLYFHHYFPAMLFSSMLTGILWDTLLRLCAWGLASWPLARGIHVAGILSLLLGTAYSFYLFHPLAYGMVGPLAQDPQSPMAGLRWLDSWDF
UniProt Q9H7Z7: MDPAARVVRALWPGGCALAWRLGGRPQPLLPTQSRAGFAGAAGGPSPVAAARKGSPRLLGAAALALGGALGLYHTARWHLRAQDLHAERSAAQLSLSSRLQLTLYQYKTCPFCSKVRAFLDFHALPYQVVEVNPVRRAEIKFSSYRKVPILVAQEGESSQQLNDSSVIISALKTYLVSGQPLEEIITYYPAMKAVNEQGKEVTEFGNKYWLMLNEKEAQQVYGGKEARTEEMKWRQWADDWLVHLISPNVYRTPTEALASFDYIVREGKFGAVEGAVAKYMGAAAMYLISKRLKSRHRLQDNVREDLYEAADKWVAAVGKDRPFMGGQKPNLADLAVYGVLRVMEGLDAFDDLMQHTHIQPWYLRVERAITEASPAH
UniProt Q9NY27: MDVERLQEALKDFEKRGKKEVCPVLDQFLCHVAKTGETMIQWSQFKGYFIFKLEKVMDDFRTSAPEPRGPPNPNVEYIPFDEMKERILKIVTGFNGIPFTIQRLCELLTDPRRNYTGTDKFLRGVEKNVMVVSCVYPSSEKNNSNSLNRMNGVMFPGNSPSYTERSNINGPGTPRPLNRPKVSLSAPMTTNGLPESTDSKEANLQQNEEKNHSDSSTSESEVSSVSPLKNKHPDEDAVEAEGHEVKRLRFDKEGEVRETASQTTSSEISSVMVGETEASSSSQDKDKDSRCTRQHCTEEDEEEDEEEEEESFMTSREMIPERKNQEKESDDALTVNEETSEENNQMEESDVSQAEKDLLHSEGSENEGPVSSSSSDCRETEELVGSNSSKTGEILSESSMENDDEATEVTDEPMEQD
UniProt Q96QH2: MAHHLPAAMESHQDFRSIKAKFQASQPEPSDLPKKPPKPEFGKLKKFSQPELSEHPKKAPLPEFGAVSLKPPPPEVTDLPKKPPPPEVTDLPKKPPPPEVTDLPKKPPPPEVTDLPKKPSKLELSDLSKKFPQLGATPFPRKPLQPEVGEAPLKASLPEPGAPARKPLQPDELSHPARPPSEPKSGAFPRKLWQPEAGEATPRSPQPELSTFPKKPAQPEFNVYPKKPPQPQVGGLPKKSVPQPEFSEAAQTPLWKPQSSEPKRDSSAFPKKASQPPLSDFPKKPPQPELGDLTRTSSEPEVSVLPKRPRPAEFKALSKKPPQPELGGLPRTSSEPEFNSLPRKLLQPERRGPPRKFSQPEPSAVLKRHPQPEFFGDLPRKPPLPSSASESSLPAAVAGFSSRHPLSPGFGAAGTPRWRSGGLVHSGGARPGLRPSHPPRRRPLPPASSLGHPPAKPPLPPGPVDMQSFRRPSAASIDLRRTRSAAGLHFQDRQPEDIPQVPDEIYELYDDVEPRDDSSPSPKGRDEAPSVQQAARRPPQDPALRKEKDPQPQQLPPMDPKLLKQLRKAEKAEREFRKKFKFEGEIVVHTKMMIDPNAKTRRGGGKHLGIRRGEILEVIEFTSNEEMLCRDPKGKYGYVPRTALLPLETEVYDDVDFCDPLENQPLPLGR
UniProt Q86UA1: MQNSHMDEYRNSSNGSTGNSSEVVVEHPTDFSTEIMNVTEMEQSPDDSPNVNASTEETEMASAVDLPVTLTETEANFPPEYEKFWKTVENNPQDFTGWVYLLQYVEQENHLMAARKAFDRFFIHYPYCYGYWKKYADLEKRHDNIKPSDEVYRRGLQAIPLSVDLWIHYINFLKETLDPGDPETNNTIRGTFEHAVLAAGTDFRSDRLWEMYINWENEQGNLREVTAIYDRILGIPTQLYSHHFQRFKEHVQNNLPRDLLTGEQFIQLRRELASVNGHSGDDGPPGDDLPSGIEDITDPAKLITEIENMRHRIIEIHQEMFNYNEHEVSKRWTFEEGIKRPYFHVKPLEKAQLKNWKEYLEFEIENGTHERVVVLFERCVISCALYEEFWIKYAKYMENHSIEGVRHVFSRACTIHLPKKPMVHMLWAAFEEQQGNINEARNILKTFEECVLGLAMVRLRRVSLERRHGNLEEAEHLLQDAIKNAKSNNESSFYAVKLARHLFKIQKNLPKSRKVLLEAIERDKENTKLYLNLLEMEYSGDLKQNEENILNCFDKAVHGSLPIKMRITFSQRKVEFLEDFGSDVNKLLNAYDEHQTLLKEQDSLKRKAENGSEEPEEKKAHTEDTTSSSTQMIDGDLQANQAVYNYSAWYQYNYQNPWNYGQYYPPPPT
UniProt P62195, whole entry: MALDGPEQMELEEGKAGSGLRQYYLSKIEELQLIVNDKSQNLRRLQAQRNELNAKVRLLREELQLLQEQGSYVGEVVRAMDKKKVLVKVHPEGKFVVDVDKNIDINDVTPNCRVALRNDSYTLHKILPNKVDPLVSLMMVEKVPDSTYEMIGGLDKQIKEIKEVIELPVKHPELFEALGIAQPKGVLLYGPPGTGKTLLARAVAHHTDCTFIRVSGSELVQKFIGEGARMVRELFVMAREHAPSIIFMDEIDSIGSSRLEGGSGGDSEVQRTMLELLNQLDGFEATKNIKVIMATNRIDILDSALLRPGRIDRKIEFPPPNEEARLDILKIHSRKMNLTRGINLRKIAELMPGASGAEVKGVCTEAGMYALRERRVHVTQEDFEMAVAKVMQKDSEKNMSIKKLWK
UniProt Q9NVS9: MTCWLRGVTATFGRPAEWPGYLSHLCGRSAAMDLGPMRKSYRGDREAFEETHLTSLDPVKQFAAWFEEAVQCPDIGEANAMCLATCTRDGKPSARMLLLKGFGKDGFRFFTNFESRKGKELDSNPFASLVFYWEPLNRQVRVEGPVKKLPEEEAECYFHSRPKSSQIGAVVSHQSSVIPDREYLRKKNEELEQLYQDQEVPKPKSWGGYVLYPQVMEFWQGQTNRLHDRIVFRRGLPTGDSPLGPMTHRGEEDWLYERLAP
UniProt O60927: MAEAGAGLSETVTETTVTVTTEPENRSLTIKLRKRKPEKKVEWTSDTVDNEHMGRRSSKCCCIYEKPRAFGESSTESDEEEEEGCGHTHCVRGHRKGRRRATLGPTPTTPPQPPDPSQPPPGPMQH
UniProt P40306: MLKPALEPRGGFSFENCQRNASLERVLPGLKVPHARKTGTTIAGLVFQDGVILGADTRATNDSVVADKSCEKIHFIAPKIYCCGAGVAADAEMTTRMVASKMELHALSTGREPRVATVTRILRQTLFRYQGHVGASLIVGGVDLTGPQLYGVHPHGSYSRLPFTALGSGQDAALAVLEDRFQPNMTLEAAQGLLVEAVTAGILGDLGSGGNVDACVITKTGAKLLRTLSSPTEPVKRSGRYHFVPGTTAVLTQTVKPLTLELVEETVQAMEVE
UniProt Q13362, whole entry, looked up: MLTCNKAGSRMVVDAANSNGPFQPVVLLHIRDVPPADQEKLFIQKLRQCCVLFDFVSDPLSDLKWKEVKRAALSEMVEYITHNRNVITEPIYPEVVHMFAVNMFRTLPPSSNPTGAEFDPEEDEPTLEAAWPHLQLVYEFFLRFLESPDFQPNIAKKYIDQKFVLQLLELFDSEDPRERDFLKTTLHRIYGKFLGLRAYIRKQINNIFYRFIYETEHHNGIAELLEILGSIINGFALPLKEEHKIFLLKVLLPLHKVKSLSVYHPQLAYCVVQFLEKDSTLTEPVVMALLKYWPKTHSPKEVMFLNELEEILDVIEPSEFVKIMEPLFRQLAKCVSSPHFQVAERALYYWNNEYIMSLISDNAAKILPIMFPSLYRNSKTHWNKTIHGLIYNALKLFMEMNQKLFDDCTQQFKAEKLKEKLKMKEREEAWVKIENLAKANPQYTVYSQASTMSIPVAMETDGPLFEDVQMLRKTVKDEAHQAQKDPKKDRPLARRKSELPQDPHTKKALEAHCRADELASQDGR

Each target was assayed with COc1ccc(Cn2ccc3cc(C)c(C(=O)NO)cc32)cc1 (assay: dose-dependent thermal stabilisation call (2D-TPP, DLPTP, 10% FDR) (binary (1 = stabilised)); higher = stabilised by the compound). Conditions: system: HL-60 intact cells; concentration range 0.04-10 µM.
Procedure: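 2D thermal proteome profiling in intact HL-60 cells treated with BRD-3811 (0, 0.04, 0.29, 2, 10 uM) for 90 min at 37 C, then heated 3 min at one of 12 temperatures (42-63.9 C). Soluble protein was quantified by TMT10 MS. The value is the DLPTP call of the paper: dose-dependent thermal stabilisation over all temperatures at 10% FDR (F-test of a dose-response against a flat model); one experiment, one call per tested protein.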

Question: For PRPSAP1 (UniProt Q14558), which “dose-dependent thermal stabilisation call” value is on record?
Answer: inactive: 0

Question: PSTPIP2 (UniProt Q9H939) was tested. Which “dose-dependent thermal stabilisation call” value did it give?
Answer: inactive: 0

Question: POLR2F (UniProt P61218) was tested. Which “dose-dependent thermal stabilisation call” value did it give?
Answer: inactive: 0

Question: PSME3 (UniProt P61289) was tested. Which “dose-dependent thermal stabilisation call” value did it give?
Answer: inactive: 0

Question: PSMB9 (UniProt P28065) was tested. Which “dose-dependent thermal stabilisation call” value did it give?
Answer: inactive: 0

Question: How did the “dose-dependent thermal stabilisation call” value turn out when PSMD13 (UniProt Q9UNM6) was run?
Answer: inactive: 0

Question: How did the “dose-dependent thermal stabilisation call” value turn out when PRKAB1 (UniProt Q9Y478) was run?
Answer: inactive: 0

Question: With POLD3 (UniProt Q15054) as the target, how does the “dose-dependent thermal stabilisation call” value read?
Answer: inactive: 0

Question: With PRKRIP1 (UniProt Q9H875) as the target, how does the “dose-dependent thermal stabilisation call” value read?
Answer: inactive: 0

Question: PPIB (UniProt P23284) was tested. Which “dose-dependent thermal stabilisation call” value did it give?
Answer: inactive: 0

Question: Which “dose-dependent thermal stabilisation call” value does the source give for PRCP (UniProt P42785) here?
Answer: inactive: 0

Question: How did the “dose-dependent thermal stabilisation call” value turn out when POMT2 (UniProt Q9UKY4) was run?
Answer: inactive: 0

Question: How did the “dose-dependent thermal stabilisation call” value turn out when PTGES2 (UniProt Q9H7Z7) was run?
Answer: inactive: 0

Question: PPP4R2 (UniProt Q9NY27) was tested. Which “dose-dependent thermal stabilisation call” value did it give?
Answer: inactive: 0

Question: Which “dose-dependent thermal stabilisation call” value does the source give for PRAM1 (UniProt Q96QH2) here?
Answer: inactive: 0

Question: Which “dose-dependent thermal stabilisation call” value does the source give for PNKP (UniProt Q96T60) here?
Answer: inactive: 0

Question: For POLR3D (UniProt P05423), which “dose-dependent thermal stabilisation call” value is on record?
Answer: inactive: 0

Question: Which “dose-dependent thermal stabilisation call” value does the source give for PRPF39 (UniProt Q86UA1) here?
Answer: inactive: 0

Question: How did the “dose-dependent thermal stabilisation call” value turn out when PSMC5 (UniProt P62195) was run?
Answer: inactive: 0

Question: With PNPO (UniProt Q9NVS9) as the target, how does the “dose-dependent thermal stabilisation call” value read?
Answer: inactive: 0

Question: Which “dose-dependent thermal stabilisation call” value does the source give for PPP1R11 (UniProt O60927) here?
Answer: inactive: 0

Question: PSMB10 (UniProt P40306) was tested. Which “dose-dependent thermal stabilisation call” value did it give?
Answer: inactive: 0

Question: Which “dose-dependent thermal stabilisation call” value does the source give for PPP2R5C (UniProt Q13362) here?
Answer: inactive: 0

Question: PLXNC1 (UniProt O60486) was tested. Which “dose-dependent thermal stabilisation call” value did it give?
Answer: inactive: 0

Question: Which “dose-dependent thermal stabilisation call” value does the source give for PTPLB (UniProt Q6Y1H2) here?
Answer: inactive: 0

Question: Which “dose-dependent thermal stabilisation call” value does the source give for PRPF4B here?
Answer: inactive: 0

Question: For POLR2E (UniProt P19388), which “dose-dependent thermal stabilisation call” value is on record?
Answer: inactive: 0
